PubChem BioAssay (NCATS)
The shares of active, inactive and inconclusive entries below differ from those in the screen. For some of these results: A potency beside an inconclusive call is a rough fit, not a confirmed value. The source made the active and inactive calls. Calls come from the whole dose curve; as a rule, active = well fitted cell-killing curve with a large enough effect; inconclusive = small, poorly fitted or top-dose-only effect, or effect the other way; inactive = no such curve, though single readings can be large or run the other way.

Columns and labels:
[1] = Quantitative High-Throughput drug screen in 47 multiple myeloma cell lines against the NCATS MIPE library collection: Delta47_JCRB cell viability assay (AID 1918925; note: nearly all actives have a fitted effect of over 45% in size; note: potency is the fitted concentration of half-maximal effect); conditions: Delta47 myeloma viability, CellTiter-Glo ATP, 48 h; viability (% of DMSO): at 45.8 µM (top of the series)
In short: (§1)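 Myeloma cells (500 per well) were exposed to MIPE 4.0 compounds by pin transfer and incubated 48 hours at 37C, 5% CO2. Viability was read as ATP by CellTiter-Glo luminescence, normalised to DMSO (100%) and media-only (0%) wells.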

[2] = Quantitative High-Throughput drug screen in 47 multiple myeloma cell lines against the NCATS MIPE library collection: EJM_DSMZ cell viability assay (AID 1918926; note: nearly all actives have a fitted effect of over 30% in size; note: potency is the fitted concentration of half-maximal effect); conditions: EJM myeloma cell viability, CellTiter-Glo ATP, 48 h; series mostly up to 45.8 µM
In short: as §1

[3] = Quantitative High-Throughput drug screen in 47 multiple myeloma cell lines against the NCATS MIPE library collection: ARP1_JJKsccF8 cell viability assay (AID 1918928; note: nearly all actives have a fitted effect of over 40% in size; note: potency is the fitted concentration of half-maximal effect); conditions: ARP1 myeloma cells viability, CellTiter-Glo ATP, 48 h; viability: at 45.8 µM (top of the series)
In short: (§2)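 Myeloma cells, 500 per well, were exposed to MIPE 4.0 drugs by pin transfer for 48 h at 37 °C, 5% CO2. Viability was read as ATP luminescence with CellTiter-Glo, normalised to DMSO-only (100%) and medium-only (0%) wells.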

[4] = Quantitative High-Throughput drug screen in 47 multiple myeloma cell lines against the NCATS MIPE library collection: ARD_JJKsccE7 cell viability assay (AID 1918929; note: potency is the fitted concentration of half-maximal effect); conditions: ARD myeloma cell line viability, CellTiter-Glo, 48 h; viability: at 45.8 µM (top of the series)
In short: as §1

[5] = Quantitative High-Throughput drug screen in 47 multiple myeloma cell lines against the NCATS MIPE library collection: AMO1_DSMZ cell viability assay (AID 1918927; note: nearly all actives have a fitted effect of over 30% in size); conditions: AMO1 myeloma cells viability, CellTiter-Glo ATP luminescence, 48 h; series mostly up to 45.8 µM
In short: as §1

[6] = Quantitative High-Throughput drug screen in 47 multiple myeloma cell lines against the NCATS MIPE library collection: KMM1_JCRB cell viability assay (AID 1918960); conditions: KMM1 myeloma viability, CellTiter-Glo ATP luminescence, 48 h; viability (% of DMSO): at 45.8 µM (top of the series); note: nearly all actives have a fitted effect of over 30% in size; note: potency is the fitted concentration of half-maximal effect
In short: as §2

[7] = Quantitative High-Throughput drug screen in 47 multiple myeloma cell lines against the NCATS MIPE library collection: Karpas417_ECACC cell viability assay (AID 1918961); conditions: Karpas417 myeloma viability, CellTiter-Glo ATP luminescence, 48 h; viability (% of DMSO): at 45.8 µM (top of the series); note: potency is the fitted concentration of half-maximal effect
In short: as §1

[8] = Quantitative High-Throughput drug screen in 47 multiple myeloma cell lines against the NCATS MIPE library collection: Karpas620_DSMZ cell viability assay (AID 1918959); conditions: Karpas620 myeloma viability, CellTiter-Glo ATP luminescence, 48 h; viability (% of DMSO): at 45.8 µM (top of the series); note: nearly all actives have a fitted effect of over 30% in size; note: potency is the fitted concentration of half-maximal effect
In short: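 CellTiter-Glo luminescence (ATP) after 48 h compound exposure, 37C/5% CO2; 500 cells/well; MIPE 4.0 approved/investigational drugs pinned in; DMSO = 100%, media only = 0% viability.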

Row | Structure (SMILES) | Potency [1] | Potency [2] | Potency [3] | Potency [4] | Potency [5] | Potency [6] | Potency [7] | Potency [8]
1 | C[C@]12CC[C@@H]3c4ccc(O)cc4CC[C@H]3[C@H]1[C@@H](O)[C@@H](O)[C@H]2O | inconclusive: 1 nM | inconclusive: 23500 nM [cytotoxic, single point] | inconclusive: 2.6 nM [rising, full curve, poor fit] | inconclusive: 37200 nM [rising, single point] | – | – | – | –
2 | Cc1cc(C(C)(C)C)cc(C)c1CC1=NCCN1 | inactive | inactive | – | – | inactive | inconclusive: 93.5 nM [cytotoxic, full curve, poor fit] | – | –
3 | OC[C@H]1O[C@@H](OCCc2ccc(O)cc2)[C@H](O)[C@@H](O)[C@H]1O | inconclusive: 2.6 nM [cytotoxic, full curve, poor fit] | inactive | inconclusive: 2640 nM [cytotoxic, full curve, poor fit] | inconclusive: 11.8 nM [cytotoxic, full curve, poor fit] | – | – | inconclusive: 5.9 nM [rising, full curve, poor fit] | –
4 | CC(=O)O[C@@]12CO[C@H]1C[C@H](O)[C@@]1(C)C(=O)[C@H](O)C3=C(C)[C@@H](OC(=O)C(O)[C@@H](NC(=O)OC(C)(C)C)c4ccccc4)C[C@@](O)([C@@H](OC(=O)c4ccccc4)[C@@H]21)C3(C)C (stereo partly specified) | inactive | inactive | – | inactive | inactive | inactive | inconclusive: 418 nM [cytotoxic, full curve, poor fit] | inconclusive: 7430 nM [cytotoxic, partial curve, poor fit]
5 | COCCCOc1ccnc(CS(=O)c2nc3ccccc3[nH]2)c1C (stereo unspecified) | inactive | inactive | inconclusive: 20900 nM [cytotoxic, partial curve, poor fit] | – | inactive | – | inactive | –
6 | CCCCS(=N)(=O)CCC(N)C(=O)O (stereo unspecified) | inactive | inconclusive: 29600 nM [cytotoxic, single point] | – | inconclusive: 1.5 nM [cytotoxic, full curve, poor fit] | – | – | – | inconclusive: 3720 nM [cytotoxic, partial curve, poor fit]
7 | CC(C)OC(=O)OCOP(=O)(CO[C@H](C)Cn1cnc2c(N)ncnc21)OCOC(=O)OC(C)C | inconclusive: 14800 nM [cytotoxic, partial curve, poor fit] | inconclusive: 14800 nM [cytotoxic, partial curve] | inconclusive: 14800 nM [cytotoxic, partial curve] | – | – | – | inconclusive: 2960 nM [cytotoxic, full curve, poor fit] | –
8 | Cn1cc(-c2ccc3ncc(Cc4ccc5ncccc5c4)n3n2)cn1 | inconclusive: 8330 nM [cytotoxic, full curve, poor fit] | inactive | inactive | inactive | – | inconclusive: 18700 nM [cytotoxic, partial curve] | inconclusive: 2.3 nM [cytotoxic, full curve, poor fit] | –
9 | COc1ccc(C(C)=O)c(O)c1 | inactive | inactive | – | – | – | – | active: 418 nM | inactive
10 | CON=C(C(=O)N[C@@H]1C(=O)N2C(C(=O)O)=C(Cn3ccc(=N)n3CCO)CS[C@H]12)c1csc(N)n1 | inconclusive: 105 nM [rising, full curve, poor fit] | inactive | inconclusive: 1.7 nM [rising, full curve, poor fit] | – | – | inactive | inconclusive: 662 nM [rising, full curve, poor fit] | –
11 | C[C@H]1COc2c(N3CCN(C)CC3)c(F)cc3c(=O)c(C(=O)O)cn1c23 | inconclusive: 3 nM [rising, full curve, poor fit] | inconclusive: 332 nM [cytotoxic, full curve, poor fit] | inactive | inconclusive: 7.4 nM [rising, full curve, poor fit] | inactive | – | inactive | –
12 | Fc1ccc(Cl)cc1-c1nc(Nc2ccncc2)c2nccnc2n1 | inconclusive: 14800 nM [cytotoxic, partial curve, poor fit] | active: 8330 nM | inconclusive: 1320 nM [cytotoxic, full curve, poor fit] | inactive | – | inconclusive: 1050 nM [cytotoxic, full curve] | inactive | inactive

One compound at a time (already shown). Order of values: Potency [1]	Potency [2]	Potency [3]	Potency [4]	Potency [5]	Potency [6]	Potency [7]	Potency [8]
CC(C)OC(=O)OCOP(=O)(CO[C@H](C)Cn1cnc2c(N)ncnc21)OCOC(=O)OC(C)C as listed: inconclusive: 14800 nM [cytotoxic, partial curve, poor fit]	inconclusive: 14800 nM [cytotoxic, partial curve]	inconclusive: 14800 nM [cytotoxic, partial curve]	–	–	–	inconclusive: 2960 nM [cytotoxic, full curve, poor fit]	–
CC(=O)O[C@@]12CO[C@H]1C[C@H](O)[C@@]1(C)C(=O)[C@H](O)C3=C(C)[C@@H](OC(=O)C(O)[C@@H](NC(=O)OC(C)(C)C)c4ccccc4)C[C@@](O)([C@@H](OC(=O)c4ccccc4)[C@@H]21)C3(C)C (stereo partly specified) as listed: inactive	inactive	–	inactive	inactive	inactive	inconclusive: 418 nM [cytotoxic, full curve, poor fit]	inconclusive: 7430 nM [cytotoxic, partial curve, poor fit]
